Results on 39 targets are retold here after the supplement of paper PMC10849652.

By UniProt entry, the sequences of proteins in these tests, tags left out. Where a name states a change or a piece, a line headed by the entry shows the natural chain unless it says otherwise.
UniProt Q14188: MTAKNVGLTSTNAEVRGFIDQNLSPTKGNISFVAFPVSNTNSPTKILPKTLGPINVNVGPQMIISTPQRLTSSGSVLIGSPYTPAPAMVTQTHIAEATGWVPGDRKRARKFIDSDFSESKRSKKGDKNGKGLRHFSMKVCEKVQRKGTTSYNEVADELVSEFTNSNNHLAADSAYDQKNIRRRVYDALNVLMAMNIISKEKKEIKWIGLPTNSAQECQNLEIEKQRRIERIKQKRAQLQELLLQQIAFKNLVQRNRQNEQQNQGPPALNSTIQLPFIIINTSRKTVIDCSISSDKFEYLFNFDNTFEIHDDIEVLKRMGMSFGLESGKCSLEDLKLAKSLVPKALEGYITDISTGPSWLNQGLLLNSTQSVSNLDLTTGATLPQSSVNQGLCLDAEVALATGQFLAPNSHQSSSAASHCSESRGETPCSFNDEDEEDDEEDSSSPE
UniProt Q96CP7: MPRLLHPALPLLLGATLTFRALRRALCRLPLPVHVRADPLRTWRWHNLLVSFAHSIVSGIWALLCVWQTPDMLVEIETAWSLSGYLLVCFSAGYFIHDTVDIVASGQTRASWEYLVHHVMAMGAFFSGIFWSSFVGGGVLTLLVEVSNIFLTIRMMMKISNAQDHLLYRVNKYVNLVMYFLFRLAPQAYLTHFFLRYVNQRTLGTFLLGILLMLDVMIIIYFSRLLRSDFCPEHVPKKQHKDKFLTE
UniProt Q14186: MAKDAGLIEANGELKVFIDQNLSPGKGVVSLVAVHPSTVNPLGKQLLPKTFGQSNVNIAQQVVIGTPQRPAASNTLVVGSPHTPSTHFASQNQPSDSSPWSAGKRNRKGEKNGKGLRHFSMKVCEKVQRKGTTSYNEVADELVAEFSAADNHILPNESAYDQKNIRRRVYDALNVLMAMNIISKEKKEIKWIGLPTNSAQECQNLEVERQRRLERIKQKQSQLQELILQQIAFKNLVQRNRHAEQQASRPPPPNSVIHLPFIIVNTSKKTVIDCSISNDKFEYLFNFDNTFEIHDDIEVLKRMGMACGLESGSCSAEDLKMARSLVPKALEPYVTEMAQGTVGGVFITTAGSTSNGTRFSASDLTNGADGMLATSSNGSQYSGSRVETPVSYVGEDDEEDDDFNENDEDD
UniProt Q6I9Y2: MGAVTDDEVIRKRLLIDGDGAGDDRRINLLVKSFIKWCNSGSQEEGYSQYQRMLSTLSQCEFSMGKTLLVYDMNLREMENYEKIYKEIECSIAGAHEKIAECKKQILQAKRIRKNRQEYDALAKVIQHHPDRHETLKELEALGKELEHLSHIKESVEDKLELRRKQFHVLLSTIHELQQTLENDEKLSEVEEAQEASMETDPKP
UniProt Q3MII6: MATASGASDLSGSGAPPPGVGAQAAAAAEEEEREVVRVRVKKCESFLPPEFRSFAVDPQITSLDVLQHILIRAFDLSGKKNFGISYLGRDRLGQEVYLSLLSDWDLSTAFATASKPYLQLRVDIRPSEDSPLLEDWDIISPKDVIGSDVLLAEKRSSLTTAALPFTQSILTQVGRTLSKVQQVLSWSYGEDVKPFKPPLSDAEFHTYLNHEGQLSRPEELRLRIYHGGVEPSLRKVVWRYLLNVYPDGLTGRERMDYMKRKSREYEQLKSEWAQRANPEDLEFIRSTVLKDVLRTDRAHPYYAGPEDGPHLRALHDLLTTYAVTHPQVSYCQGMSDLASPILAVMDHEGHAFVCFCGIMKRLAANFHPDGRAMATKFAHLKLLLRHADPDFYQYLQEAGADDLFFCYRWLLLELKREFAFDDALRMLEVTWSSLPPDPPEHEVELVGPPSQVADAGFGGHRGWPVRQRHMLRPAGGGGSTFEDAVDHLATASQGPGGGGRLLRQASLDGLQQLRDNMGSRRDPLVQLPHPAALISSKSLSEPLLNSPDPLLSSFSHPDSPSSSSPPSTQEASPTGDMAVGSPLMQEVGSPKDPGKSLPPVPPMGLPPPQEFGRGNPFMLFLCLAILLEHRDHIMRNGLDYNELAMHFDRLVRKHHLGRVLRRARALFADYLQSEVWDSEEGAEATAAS
UniProt Q13488, whole entry, looked up: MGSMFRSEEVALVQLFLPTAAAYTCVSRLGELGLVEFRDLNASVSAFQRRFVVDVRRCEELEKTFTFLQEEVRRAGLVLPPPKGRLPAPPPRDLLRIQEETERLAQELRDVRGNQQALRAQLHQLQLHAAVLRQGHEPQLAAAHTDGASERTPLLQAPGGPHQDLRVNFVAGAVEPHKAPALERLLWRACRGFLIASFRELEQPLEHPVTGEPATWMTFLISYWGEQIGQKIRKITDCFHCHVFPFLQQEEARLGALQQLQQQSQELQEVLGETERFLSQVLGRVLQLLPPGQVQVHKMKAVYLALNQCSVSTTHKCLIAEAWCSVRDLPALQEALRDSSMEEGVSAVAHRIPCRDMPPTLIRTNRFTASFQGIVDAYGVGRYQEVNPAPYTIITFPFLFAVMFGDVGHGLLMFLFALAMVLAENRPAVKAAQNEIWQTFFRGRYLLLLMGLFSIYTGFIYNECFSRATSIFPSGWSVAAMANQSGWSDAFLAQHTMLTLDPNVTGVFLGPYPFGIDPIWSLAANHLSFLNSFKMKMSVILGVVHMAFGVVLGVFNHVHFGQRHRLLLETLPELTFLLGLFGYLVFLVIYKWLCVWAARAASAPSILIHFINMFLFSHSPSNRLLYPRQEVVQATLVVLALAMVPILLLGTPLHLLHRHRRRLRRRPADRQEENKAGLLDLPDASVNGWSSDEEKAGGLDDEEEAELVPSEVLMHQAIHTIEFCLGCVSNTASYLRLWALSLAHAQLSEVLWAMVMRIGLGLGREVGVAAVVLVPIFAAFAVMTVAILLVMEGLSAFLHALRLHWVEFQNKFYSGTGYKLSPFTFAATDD
UniProt Q96BZ9: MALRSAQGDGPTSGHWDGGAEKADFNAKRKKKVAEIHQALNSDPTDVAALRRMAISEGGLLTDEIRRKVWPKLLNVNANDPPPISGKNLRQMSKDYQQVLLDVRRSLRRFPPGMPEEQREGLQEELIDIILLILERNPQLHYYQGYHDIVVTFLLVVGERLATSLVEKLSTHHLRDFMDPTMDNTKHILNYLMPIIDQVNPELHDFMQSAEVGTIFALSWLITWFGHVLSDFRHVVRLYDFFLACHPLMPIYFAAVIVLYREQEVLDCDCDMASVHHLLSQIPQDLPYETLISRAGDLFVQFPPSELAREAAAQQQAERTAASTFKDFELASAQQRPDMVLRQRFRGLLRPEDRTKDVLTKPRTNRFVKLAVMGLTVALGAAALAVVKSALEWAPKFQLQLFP
UniProt Q15554: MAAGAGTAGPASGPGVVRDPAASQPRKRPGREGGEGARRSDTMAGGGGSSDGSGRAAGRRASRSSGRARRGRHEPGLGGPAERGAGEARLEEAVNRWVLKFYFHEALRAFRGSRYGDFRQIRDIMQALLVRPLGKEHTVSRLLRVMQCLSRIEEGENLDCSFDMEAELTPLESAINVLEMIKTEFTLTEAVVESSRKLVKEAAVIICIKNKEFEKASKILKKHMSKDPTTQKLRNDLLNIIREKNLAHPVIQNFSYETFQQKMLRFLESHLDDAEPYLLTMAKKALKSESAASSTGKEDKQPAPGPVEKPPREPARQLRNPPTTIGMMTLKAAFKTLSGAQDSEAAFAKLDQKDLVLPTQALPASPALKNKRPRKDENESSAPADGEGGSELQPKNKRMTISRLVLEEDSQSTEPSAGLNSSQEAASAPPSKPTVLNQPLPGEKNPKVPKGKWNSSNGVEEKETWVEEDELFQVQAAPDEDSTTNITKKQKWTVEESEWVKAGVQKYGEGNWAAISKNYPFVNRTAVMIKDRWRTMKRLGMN
UniProt Q15170: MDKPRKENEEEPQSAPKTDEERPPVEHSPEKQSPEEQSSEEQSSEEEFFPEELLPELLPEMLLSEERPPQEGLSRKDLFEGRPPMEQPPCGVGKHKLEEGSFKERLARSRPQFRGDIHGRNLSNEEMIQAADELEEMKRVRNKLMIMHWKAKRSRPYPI
UniProt Q9BQ70: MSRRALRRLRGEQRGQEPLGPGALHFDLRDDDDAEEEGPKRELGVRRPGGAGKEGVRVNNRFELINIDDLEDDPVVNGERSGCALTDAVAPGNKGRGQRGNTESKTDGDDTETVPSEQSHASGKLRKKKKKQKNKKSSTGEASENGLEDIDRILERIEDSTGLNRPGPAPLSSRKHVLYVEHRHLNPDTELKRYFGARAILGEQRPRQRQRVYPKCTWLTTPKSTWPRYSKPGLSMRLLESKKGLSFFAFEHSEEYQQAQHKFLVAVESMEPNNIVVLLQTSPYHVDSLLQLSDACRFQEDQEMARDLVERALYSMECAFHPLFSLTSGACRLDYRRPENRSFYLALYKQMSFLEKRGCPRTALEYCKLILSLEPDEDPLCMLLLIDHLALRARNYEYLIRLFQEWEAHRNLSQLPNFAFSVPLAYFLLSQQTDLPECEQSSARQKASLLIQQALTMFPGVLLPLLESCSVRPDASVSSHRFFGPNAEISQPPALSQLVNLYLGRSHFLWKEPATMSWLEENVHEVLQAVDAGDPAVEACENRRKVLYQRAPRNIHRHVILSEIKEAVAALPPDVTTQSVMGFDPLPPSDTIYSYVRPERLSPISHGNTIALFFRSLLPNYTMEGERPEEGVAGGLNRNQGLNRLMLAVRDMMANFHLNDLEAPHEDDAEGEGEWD
UniProt O95455: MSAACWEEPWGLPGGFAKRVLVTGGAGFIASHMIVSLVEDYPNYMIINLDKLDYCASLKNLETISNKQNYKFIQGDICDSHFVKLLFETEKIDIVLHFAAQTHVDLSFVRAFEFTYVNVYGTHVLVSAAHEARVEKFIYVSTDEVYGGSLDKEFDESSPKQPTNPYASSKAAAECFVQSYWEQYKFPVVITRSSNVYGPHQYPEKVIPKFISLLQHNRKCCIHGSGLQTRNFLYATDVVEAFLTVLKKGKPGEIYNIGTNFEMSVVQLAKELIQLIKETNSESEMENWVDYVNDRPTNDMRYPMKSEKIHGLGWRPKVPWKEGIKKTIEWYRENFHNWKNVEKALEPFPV
UniProt Q96CG3: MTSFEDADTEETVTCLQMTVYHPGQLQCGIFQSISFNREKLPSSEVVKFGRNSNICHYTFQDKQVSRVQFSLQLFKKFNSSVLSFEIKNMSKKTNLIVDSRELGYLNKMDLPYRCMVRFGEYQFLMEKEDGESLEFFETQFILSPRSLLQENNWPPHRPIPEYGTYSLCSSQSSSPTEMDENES
UniProt P15923: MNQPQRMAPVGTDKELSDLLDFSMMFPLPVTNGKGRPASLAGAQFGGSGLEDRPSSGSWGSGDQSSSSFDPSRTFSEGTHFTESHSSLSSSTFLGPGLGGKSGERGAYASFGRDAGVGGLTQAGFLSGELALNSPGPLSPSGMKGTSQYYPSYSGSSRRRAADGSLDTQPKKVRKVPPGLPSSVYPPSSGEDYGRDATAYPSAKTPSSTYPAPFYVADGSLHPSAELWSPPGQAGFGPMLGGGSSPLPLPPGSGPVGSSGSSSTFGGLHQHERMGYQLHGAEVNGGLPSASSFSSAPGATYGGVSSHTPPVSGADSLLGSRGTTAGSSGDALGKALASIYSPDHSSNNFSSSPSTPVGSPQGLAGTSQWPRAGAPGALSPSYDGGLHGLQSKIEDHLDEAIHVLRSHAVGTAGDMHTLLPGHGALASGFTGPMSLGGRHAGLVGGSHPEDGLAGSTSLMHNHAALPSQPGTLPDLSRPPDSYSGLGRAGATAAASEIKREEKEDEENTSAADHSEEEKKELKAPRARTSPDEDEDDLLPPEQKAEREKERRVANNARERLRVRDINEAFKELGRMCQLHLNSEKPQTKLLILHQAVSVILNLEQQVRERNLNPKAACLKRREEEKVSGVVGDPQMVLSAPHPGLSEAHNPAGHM
UniProt Q8N9U0: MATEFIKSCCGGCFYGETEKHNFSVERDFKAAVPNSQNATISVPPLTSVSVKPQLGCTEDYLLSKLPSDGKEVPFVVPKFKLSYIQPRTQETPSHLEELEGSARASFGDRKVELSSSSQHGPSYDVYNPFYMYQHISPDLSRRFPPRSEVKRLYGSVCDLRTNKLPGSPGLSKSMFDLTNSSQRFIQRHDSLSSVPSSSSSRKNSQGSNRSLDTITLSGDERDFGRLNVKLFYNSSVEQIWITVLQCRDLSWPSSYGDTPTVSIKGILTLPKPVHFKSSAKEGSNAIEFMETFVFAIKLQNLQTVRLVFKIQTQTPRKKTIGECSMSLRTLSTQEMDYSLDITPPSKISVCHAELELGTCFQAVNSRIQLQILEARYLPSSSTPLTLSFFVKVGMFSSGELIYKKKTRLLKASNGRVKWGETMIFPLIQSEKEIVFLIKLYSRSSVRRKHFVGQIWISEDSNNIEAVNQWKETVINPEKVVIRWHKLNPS
UniProt Q8TBR7: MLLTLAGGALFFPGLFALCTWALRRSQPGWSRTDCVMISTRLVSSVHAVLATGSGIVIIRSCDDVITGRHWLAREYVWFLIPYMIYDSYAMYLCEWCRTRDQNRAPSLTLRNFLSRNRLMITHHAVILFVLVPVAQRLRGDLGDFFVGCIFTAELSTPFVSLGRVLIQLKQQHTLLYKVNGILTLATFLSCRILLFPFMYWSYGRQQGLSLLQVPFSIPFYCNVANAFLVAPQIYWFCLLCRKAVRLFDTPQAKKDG

The list shows a part of the results.

Compound in one assay: C1=CC=C(C=C1)[C@H](COC2=CC3=C(C=C2)NC(=O)N3)NC(=O)C4=CC=CN(C4=O)CC5=CC(=C(C=C5)F)F
Description: log2 fold change, soluble protein after heating vs DMSO (PISA); higher = thermal stabilisation; K562 cells, 10 uM, 30 min; active = over 0.2 and 3.5 SD of the protein, either way, in both replicates (recomputed). An outline of the steps:
(§1)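 K562 cells at 2×10^6 cells/mL were given 10 μM compound for 30 min. Aliquots then went through 3 min of heating across 48°C-58°C, were pooled, and were extracted in PBS with 0.5% NP-40 at 4°C, and the supernatant after 21,000xg for 90 min was quantified by TMTpro 16plex LC-MS/MS with channel sums equalised. Thermal stability relative to control samples, from duplicates, is given as log2 fold change.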
Consider THAP9 (UniProt Q9H5L6), for which the log2 fold change was inactive: 0.093.

Take TFDP2 (UniProt Q14188): the log2 fold change was inactive: 0.124.

In the case of TLCD1 (UniProt Q96CP7), the log2 fold change is inactive: -0.036.

Regarding TET1 (UniProt Q8NFU7), the log2 fold change was inactive: 0.042.

In the case of TDRD3 isoform 3 (UniProt Q9H7E2), the log2 fold change was inactive: 0.099.

For the target TFDP1 (UniProt Q14186), the log2 fold change is inactive: 0.006.

Turning to TLE3 (UniProt Q04726), the log2 fold change is inactive: 0.09.

Take THOC7 (UniProt Q6I9Y2): the log2 fold change is inactive: 0.041.

As to TBC1D9 (UniProt Q6ZT07), the log2 fold change was inactive: 0.171.

As to TFE3 (UniProt P19532), the log2 fold change was inactive: -0.172.

Consider TBC1D25 (UniProt Q3MII6), for which the log2 fold change was inactive: -0.043.

TCIRG1 (UniProt Q13488): the log2 fold change is inactive: 0.063.

TCF20 (UniProt Q9UGU0): the log2 fold change was inactive: -0.008.

Consider TBC1D20 isoform 3 (UniProt Q96BZ9), for which the log2 fold change was inactive: 0.017.

As to TFCP2 (UniProt Q12800), the log2 fold change was inactive: 0.026.

Turning to TERF2 (UniProt Q15554), the log2 fold change was inactive: 0.062.

Compound in a further assay: CC1=C(SC2=C1C(=N[C@H](C3=NN=C(N32)C)CC(=O)N)C4=CC=C(C=C4)Cl)C
The assay is described as above. An outline of the steps: as §1
In the case of TDRD15 (UniProt B5MCY1), the log2 fold change was inactive: -0.022.

In the case of TCEAL1 isoform 2 (UniProt Q15170), the log2 fold change was inactive: 0.026.

For THAP9 (UniProt Q9H5L6), the log2 fold change was inactive: 0.167.

On to TCF4 isoform 3 (UniProt P15884), for which the log2 fold change was inactive: -0.005.

For the target TFDP2 (UniProt Q14188), the log2 fold change is inactive: -0.103.

In the case of TLCD1 (UniProt Q96CP7), the log2 fold change was inactive: 0.195.

As for TENM4 (UniProt Q6N022), the log2 fold change was inactive: 0.05.

Take TET1 (UniProt Q8NFU7): the log2 fold change is inactive: 0.101.

Take TCAF2 (UniProt A6NFQ2): the log2 fold change was inactive: -0.344.

As to TCF25 (UniProt Q9BQ70), the log2 fold change is inactive: 0.046.

As for TGDS (UniProt O95455), the log2 fold change was inactive: -0.205.

For the target TLE3 (UniProt Q04726), the log2 fold change is inactive: -0.086.

In the case of THOC7 (UniProt Q6I9Y2), the log2 fold change was inactive: 0.056.

For TDP1 (UniProt Q9NUW8), the log2 fold change was inactive: 0.068.

As for TBC1D25 (UniProt Q3MII6), the log2 fold change was inactive: 0.14.

TIFA (UniProt Q96CG3): the log2 fold change was inactive: -0.042.

Turning to TCIRG1 (UniProt Q13488), the log2 fold change is inactive: -0.241.

Turning to TGM2 (UniProt A2A299), the log2 fold change is inactive: -0.004.

For TCF20 (UniProt Q9UGU0), the log2 fold change was inactive: 0.126.

On to TBC1D20 isoform 3 (UniProt Q96BZ9), for which the log2 fold change was inactive: 0.069.

As for TFCP2 (UniProt Q12800), the log2 fold change is inactive: -0.061.

TERF2 (UniProt Q15554): the log2 fold change is inactive: -0.205.

Take TCF3 isoform 2 (UniProt P15923): the log2 fold change was inactive: 0.012.

Consider THAP12 (UniProt O43422), for which the log2 fold change is inactive: 0.438.

With TDRD7 (UniProt Q8NHU6), the log2 fold change was inactive: 0.048.

On to TFIP11 (UniProt Q9UBB9), for which the log2 fold change is inactive: -0.356.

Compound in a further assay: CC1=C2C(=CC=C1)N=C(N(C2=O)C3=CC=CC=C3C)CN4C=NC5=C(N=CN=C54)N
The description is as above. An outline of the steps: as §1
In the case of TDRD15 (UniProt B5MCY1), the log2 fold change is inactive: 0.169.

Regarding TCEAL1 isoform 2 (UniProt Q15170), the log2 fold change is inactive: -0.141.

Regarding TC2N (UniProt Q8N9U0), the log2 fold change was inactive: 0.053.

For TLCD3A (UniProt Q8TBR7), the log2 fold change was inactive: 0.

Turning to TLCD1 (UniProt Q96CP7), the log2 fold change was inactive: 0.024.

Consider TCEAL4 isoform 2 (UniProt Q96EI5), for which the log2 fold change is inactive: -0.001.

For TET1 (UniProt Q8NFU7), the log2 fold change was inactive: 0.219.

In the case of TDRD3 isoform 3 (UniProt Q9H7E2), the log2 fold change is inactive: -0.02.

For TFDP1 (UniProt Q14186), the log2 fold change was inactive: 0.004.

TCF25 (UniProt Q9BQ70): the log2 fold change is inactive: 0.204.

With TGDS (UniProt O95455), the log2 fold change was inactive: -0.001.

Consider THOC7 (UniProt Q6I9Y2), for which the log2 fold change is inactive: 0.039.

Turning to TBC1D9 (UniProt Q6ZT07), the log2 fold change is inactive: 0.088.

As for TBC1D25 (UniProt Q3MII6), the log2 fold change is inactive: 0.125.

As to TIFA (UniProt Q96CG3), the log2 fold change is inactive: 0.173.

Turning to TGM2 (UniProt A2A299), the log2 fold change is inactive: 0.16.

On to TBC1D20 isoform 3 (UniProt Q96BZ9), for which the log2 fold change is inactive: -0.021.

Consider TERF2 (UniProt Q15554), for which the log2 fold change was inactive: -0.123.

On to TCF3 isoform 2 (UniProt P15923), for which the log2 fold change was inactive: 0.106.

As to TBC1D14 (UniProt Q9P2M4), the log2 fold change was inactive: -0.105.

With TDRD7 (UniProt Q8NHU6), the log2 fold change was inactive: 0.051.

Compound in another assay: Cc1sc2c(c1C)C(c1ccc(Cl)cc1)=N[C@@H](CC(=O)OC(C)(C)C)c1nnc(C)n1-2
The description is as above. An outline of the steps: as §1
In the case of TDRD15 (UniProt B5MCY1), the log2 fold change is inactive: 0.182.

TCEAL1 isoform 2 (UniProt Q15170): the log2 fold change was inactive: 0.054.

Regarding TCF4 isoform 3 (UniProt P15884), the log2 fold change was inactive: -0.18.

As for TC2N (UniProt Q8N9U0), the log2 fold change is inactive: 0.08.

TLCD3A (UniProt Q8TBR7): the log2 fold change is inactive: -0.066.

For the target TFDP2 (UniProt Q14188), the log2 fold change is inactive: -0.017.

Turning to TCOF1 isoform 3 (UniProt Q13428), the log2 fold change is inactive: -0.093.

Take TLCD1 (UniProt Q96CP7): the log2 fold change is inactive: -0.184.

As to TCEAL4 isoform 2 (UniProt Q96EI5), the log2 fold change was inactive: 0.081.

With TET1 (UniProt Q8NFU7), the log2 fold change was inactive: -0.045.

As to TFDP1 (UniProt Q14186), the log2 fold change is inactive: -0.088.

TCF25 (UniProt Q9BQ70): the log2 fold change was inactive: -0.028.

On to TBCK (UniProt Q8TEA7), for which the log2 fold change is inactive: 0.05.

In the case of TGDS (UniProt O95455), the log2 fold change was inactive: -0.032.

As to THOC7 (UniProt Q6I9Y2), the log2 fold change is inactive: 0.04.

As for TFE3 (UniProt P19532), the log2 fold change is inactive: 0.053.

As to TCIRG1 (UniProt Q13488), the log2 fold change was inactive: -0.241.

TET2 (UniProt Q6N021): the log2 fold change was inactive: 0.01.

As to TEDC2 (UniProt Q7L2K0), the log2 fold change was inactive: 0.006.

Regarding TGM2 (UniProt A2A299), the log2 fold change was inactive: 0.247.

For TERF2 (UniProt Q15554), the log2 fold change was inactive: 0.182.

Take TCF3 isoform 2 (UniProt P15923): the log2 fold change is inactive: -0.152.

As to THEMIS2 (UniProt Q5TEJ8), the log2 fold change is inactive: 0.165.

As for TBC1D14 (UniProt Q9P2M4), the log2 fold change was inactive: -0.064.
